In PMC4686813:
These are yes or no findings as the source states them, for the method shown. Binding seen in cells or lysates may run through a third protein. A result given as binding can be weak or reduced; the word gives no strength. Tags and fused reporters may be left off the sequences shown.

Protein sequences, listed by entry. Tags and fused reporters are not part of them. Lines headed by an entry give the natural chain unless they say otherwise; changes in a name come on top.
UniProt P47758: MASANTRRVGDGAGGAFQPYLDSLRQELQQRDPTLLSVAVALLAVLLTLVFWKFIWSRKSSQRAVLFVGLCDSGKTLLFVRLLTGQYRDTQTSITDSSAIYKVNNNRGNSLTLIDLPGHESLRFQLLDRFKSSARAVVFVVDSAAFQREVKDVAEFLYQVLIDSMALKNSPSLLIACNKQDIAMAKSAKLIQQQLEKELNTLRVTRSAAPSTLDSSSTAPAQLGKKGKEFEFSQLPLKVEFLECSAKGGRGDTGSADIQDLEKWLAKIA

Target: T1, human SRα (His-tagged) (human) (UniProt P08240)
T1 sequence: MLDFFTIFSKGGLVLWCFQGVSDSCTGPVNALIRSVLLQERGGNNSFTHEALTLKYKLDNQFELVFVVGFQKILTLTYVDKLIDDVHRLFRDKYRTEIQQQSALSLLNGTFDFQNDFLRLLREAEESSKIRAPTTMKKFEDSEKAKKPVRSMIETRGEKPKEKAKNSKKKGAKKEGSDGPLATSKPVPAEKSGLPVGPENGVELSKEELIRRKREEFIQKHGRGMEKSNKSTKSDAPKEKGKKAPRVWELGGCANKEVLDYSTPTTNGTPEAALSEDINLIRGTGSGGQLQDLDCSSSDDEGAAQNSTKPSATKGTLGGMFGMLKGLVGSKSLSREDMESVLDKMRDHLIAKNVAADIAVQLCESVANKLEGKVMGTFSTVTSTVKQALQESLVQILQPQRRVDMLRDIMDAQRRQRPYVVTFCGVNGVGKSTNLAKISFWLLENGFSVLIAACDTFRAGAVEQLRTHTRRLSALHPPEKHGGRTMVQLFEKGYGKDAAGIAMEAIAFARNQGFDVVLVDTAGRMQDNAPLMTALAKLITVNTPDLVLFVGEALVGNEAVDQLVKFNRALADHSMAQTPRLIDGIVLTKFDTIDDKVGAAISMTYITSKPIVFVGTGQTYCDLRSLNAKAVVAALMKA
Assay: co-purification; human His-SRα and murine SRβΔTM co-expressed in E. coli from a bi-cistronic construct; Ni-NTA, Q-sepharose flow-through, SP-sepharose, Superdex 200 in SR buffer (25 mM HEPES pH 7.5, 300 mM KOAc, 5 mM Mg(OAc)2)

murine SRβΔTM (from UniProt P47758) (domain or fragment)
binding: binds
